Laboratory results published in PubChem BioAssay AID504648 (National Center for Advancing Translational Sciences (NCATS), 2011).
Screen size: about 390,000 compounds; about 610 (0.16%) were called active. The shares of active, inactive and inconclusive entries below differ from those in the screen. Calls come from the whole dose curve; as a rule, active = well fitted inhibition curve with a large enough effect; inconclusive = small, poorly fitted or top-dose-only effect, or effect the other way, or another doubt; inactive = no such curve, though single readings can be large or run the other way. A potency beside an inconclusive call is a rough fit, not a confirmed value.

Assay: Nrf2 qHTS screen for inhibitors: counterscreen for cytotoxicity
Settings: A549 ARE-Fluc cells, CellTiter-Fluor viability, 18-24 h; series mostly up to 46 µM
In short: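 A549 ARE-Fluc cells in 5% FBS OPTI-MEM, 5000 cells/well, rested 2 h then exposed to compounds in concentration-response for 18-24 h at 37 °C. Viability by CellTiter-Fluor fluorescence (Ex 405/Em 525) after 30 min; luciferase luminescence (BugLite, 15 min, RT) read afterwards.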
Potency is the fitted concentration of half-maximal effect.

Structure (SMILES) | Potency
COc1ccc(-c2nn(-c3ccccc3)cc2C(=O)N/N=C/c2ccc([N+](=O)[O-])o2)cc1 | inconclusive: 23.1 µM [falling, partial curve, poor fit]
CCCCCc1ccc(OCCCC[n+]2ccccc2)c(CCCCC)c1 | inconclusive: 29.1 µM [falling, single point]
Cc1sc2nc(CSc3ccccc3)nc(N3CCN(C)CC3)c2c1C | inconclusive: 0.82 µM [activator, partial curve, poor fit]
CCC(=O)N1CCc2cc(S(=O)(=O)CCC(=O)Nc3cccc(F)c3)ccc21 | inconclusive: 13 µM [activator, partial curve]
COc1ccc(N(CC(=O)NCC2CCCO2)S(=O)(=O)c2ccc(C)cc2)cc1OC (configuration not stated) | inactive
Cc1cc2c(cc1S(=O)(=O)N(C)CC(=O)Nc1ccc(C#N)cc1)OCC(=O)N2 | inconclusive: 7.31 µM [falling, partial curve, poor fit]
CCC(=O)c1c[nH]c(C(=O)NCCCN2CCOCC2)c1 | inactive
O=C(Nc1cnc2sccn2c1=O)c1ccccc1Cl | inactive
NC1=NC[C@H](Cc2ccccc2)N1CCCCC1CCCCC1 | inactive
Cc1cc(-n2nc3ccccc3n2)c(O)c([N+](=O)[O-])c1 | inconclusive: 14.6 µM [falling, partial curve, poor fit]
COc1ccc(/C=N/NC(=O)CSCC(=O)Nc2ccccc2)cc1 | inactive
O=C(c1cc(-c2ccc(Cl)s2)nc2ccccc12)N1CCCC1 | inactive
O=C(CN1CCN(C2CCCCC2)CC1)Nc1ccc(Br)cc1 | inconclusive: 6.51 µM [falling, single point]
CCOc1ccccc1C1c2[nH]c3ccccc3c2C[C@H]2C(=O)N(C3CCN(Cc4ccccc4)CC3)CC(=O)N12 (some centres not stated) | inconclusive: 29.1 µM [falling, single point]
CC(C)C[C@H](NC(=O)c1[nH]cnc1C(=O)N[C@@H](C)c1ccccc1)C(=O)OC(C)(C)C | inconclusive: 29.1 µM [falling, single point]
CCCCCCN1N=C(C)C(C(=O)c2ccc(Cl)cc2)C1=O (configuration not stated) | inconclusive: 29.1 µM [falling, single point]
Cc1cccc(-c2noc(C3CC(=O)N(c4ccc5c(c4)OCCO5)C3)n2)c1 (configuration not stated) | inactive
CCOC(=O)C1CCCN(C(=O)c2cccc(NC(=O)C(CC)CC)c2)C1 (configuration not stated) | inconclusive: 0.731 µM [activator, full curve, poor fit]
CCCc1nnc(NC(=O)c2nc(S(=O)(=O)Cc3ccc(C)cc3)ncc2Cl)s1 | inconclusive: 29.1 µM [falling, single point]
Cc1ccc(C#CC[N+]2(CC#Cc3ccc(C)cc3)CCCCC2)cc1 | inconclusive: 16.4 µM [falling, partial curve, poor fit]
CCC(C)(C)NC(=O)C1CC(=O)N(CCc2ccc(F)cc2)C1 (configuration not stated) | inconclusive: 20.6 µM [activator, single point]

Shown in markdown: part of the list above.

| Structure (SMILES) | Potency |
| --- | --- |
| CCC(=O)c1c[nH]c(C(=O)NCCCN2CCOCC2)c1 | inactive |
| O=C(Nc1cnc2sccn2c1=O)c1ccccc1Cl | inactive |

Additional compounds follow:

Structure (SMILES) | Potency
C=CCNC(=S)NNc1nc2c(c(=O)[nH]1)C1(CCCCC1)Cc1ccccc1-2 | inconclusive: 18.4 µM [falling, single point]
COc1ccc(CNCC(O)(c2ccccc2)c2ccc(Cl)cc2)cc1 (configuration not stated) | inconclusive: 29.1 µM [falling, single point]
Cc1[nH]c2ccccc2c1N=Nc1cc(C(=O)O)cc(C(=O)O)c1 | inconclusive: 29.1 µM [falling, partial curve, poor fit]
CCN1C/C(=C/c2ccc(N3CCOCC3)cc2)C(=O)/C(=C/c2ccc(N3CCOCC3)cc2)C1 | inconclusive: 18.4 µM [falling, single point]
CCOC(=O)c1c(NC(=O)CNC2CCCCC2)sc(C)c1C | inconclusive: 13 µM [activator, partial curve, poor fit]
COc1cc(OC)c2c(-c3ccccc3)cc(=O)oc2c1C(CCN1CCCC(C)C1)c1ccc(N(C)C)cc1 (configuration not stated) | inconclusive: 18.4 µM [falling, partial curve, poor fit]
Cc1cc(=O)n2c3ccccc3n(CC(O)CN3CCCCC3)c2c1C#N (configuration not stated) | inconclusive: 16.4 µM [falling, single point]
Cc1nnc(NC(=O)c2nc(S(=O)(=O)Cc3ccccc3)ncc2Cl)s1 | inconclusive: 29.1 µM [falling, single point]
COc1ccccc1-[n+]1c(C)cc(/C=C2\Sc3ccccc3N2C)cc1C | inconclusive: 11.6 µM [falling, partial curve, poor fit]
CC(C)c1ccc(CNCCSc2nnnn2C)cc1 | inactive
Cc1cccc(NC(=O)C(=O)NCC(c2cccnc2)N2CCOCC2)c1 (configuration not stated) | inactive
O=C(NCCC1CCCCN1S(=O)(=O)c1ccccc1)C(=O)NC1CCCC1 (configuration not stated) | inactive
Cc1cc(C)cc(NC(=O)CCCN2C(=O)C(c3ccccc3)Oc3cccnc32)c1 (configuration not stated) | inconclusive: 13 µM [falling, partial curve]
COC(=O)C1=C(C)NC(C)=C(C(=O)OC)C1c1ccc(OC(=O)c2oc3ccccc3c2C)c(OC)c1 | inactive
Cc1cc(/C=C2\C(=N)N3N=C(S(C)(=O)=O)SC3=NC2=O)c(C)n1Cc1ccccc1 | inconclusive: 16.4 µM [falling, partial curve, poor fit]
CCOC(=O)Nc1oc2ccccc2c(=O)c1C | inactive
CCC(C)NC(=O)c1ccc2c(c1)N(Cc1ccccc1)C(=O)c1ccccc1S2(=O)=O (configuration not stated) | inactive
CCCc1cc(=O)oc2cc(C)cc(OC(C)C(=O)NCC3CCC(C(=O)O)CC3)c12 (configuration not stated) | inconclusive: 3.66 µM [activator, single point]
CN1CCN(CCCNC(=O)c2cnn(-c3ccccc3)c2C2CCN(C(=O)OC(C)(C)C)CC2)CC1 | inconclusive: 25.9 µM [activator, partial curve, poor fit]
O=C(/C=C/c1ccco1)Nc1ccc2nn(-c3ccccc3)nc2c1 | inconclusive: 29.1 µM [falling, single point]
Cc1cc(C(=O)N2CC=C(c3ccccc3)CC2)c2ccccc2n1 | inconclusive: 1.46 µM [falling, partial curve, poor fit]
